PubChem BioAssay AID686937 | Drosophila RNAi Screening Center, 2013
Aim: 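Genes in the fly needed for secretion of protein constitutively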 (primary screen). Cells: Drosophila S2 cells expressing secreted horseradish peroxidase. Reagents: long dsRNA against Drosophila genes. Time to read-out: about 5.5 days (5 days dsRNA, then 12 h reporter induction). Treatment: reporter expression induced after 5 days of dsRNA, read 12 h later; inducer not stated. Detection: 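Chemiluminescent measurement of peroxidase in the medium 12 h after reporter induction, following 5 days of dsRNA, given as a z-score per plate; higher means more secretion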. Reading the numbers: z-score: higher = more reporter secreted into medium.
The screen tested about 23,000 reagents; below is a random part of those with a known target gene and a result. 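Reduced-secretion tags in replicate 1 do not always agree with the z-scores; no criterion for assigning the tags was given.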 The numbers tell different reagents against one gene apart. Not all columns of the deposit are shown. Not given: the amount of reagent.

pds5 showed z-score, replicate 1 = -0.29. Silencing of CG32651 gave: z-score, replicate 1 = 0.2. Silencing of CG13539 resulted in: z-score, replicate 1 = 0.27. CG11722 scored z-score, replicate 1 = 0.27. With knock-down of CG14810 #1, the screen gave z-score, replicate 1 = -1.38. After knock-down of CG14810 #2 the results were z-score, replicate 1 = 0.19.

For Jon74E (Jonah 74E), the values are z-score, replicate 1 = 0.25. With knock-down of mthl15 (methuselah-like 15), the screen gave z-score, replicate 1 = -1.41. CG2641 scored z-score, replicate 1 = 0.06. Ugt316A1 (UDP-glycosyltransferase family 316 member A1) gave z-score, replicate 1 = 0.21. Pask (PAS kinase) scored z-score, replicate 1 = 0.23. Try29F (Trypsin 29F) showed z-score, replicate 1 = 0.68.

After knock-down of CG6106, the screen gave z-score, replicate 1 = 0.27. MFS3 (Major Facilitator Superfamily Transporter 3) scored z-score, replicate 1 = 0.23. After knock-down of Mgat4a #1, the screen gave z-score, replicate 1 = 0.34. Depletion of Mgat4a #2 gave: z-score, replicate 1 = 0.04. CG32679 scored z-score, replicate 1 = 0.58. Depletion of Pop1 (POP1 ribonuclease P/MRP subunit) resulted in: z-score, replicate 1 = 0.34.

With knock-down of CG31668, the screen gave z-score, replicate 1 = 2.68. Depletion of Nepl10 (Neprilysin-like 10) resulted in: z-score, replicate 1 = 0.68. eys (eyes shut) #1 gave z-score, replicate 1 = -0.63. With knock-down of eys (eyes shut) #2 the results were z-score, replicate 1 = 0.12. Depletion of eys (eyes shut) #3 resulted in: z-score, replicate 1 = 0.15. Against eys (eyes shut) #4, the entry reads z-score, replicate 1 = 0.33.

Against lncRNA:CR34047 (long non-coding RNA:CR34047) #1, the values are z-score, replicate 1 = 0.07. lncRNA:CR34047 (long non-coding RNA:CR34047) #2 gave z-score, replicate 1 = 0.16. Silencing of CG34231 resulted in: z-score, replicate 1 = 0.2.
